The text below walks through data of the supplement of paper PMC3334620.

Whole data set: some 33,000 sequences, median “E-score (-0.5 to 0.5)” near -0.015, cut for the highest 2% near 0.3. The list shows a part of the results.

This assay addresses T1, Abf1 (UniProt P14164).
T1 sequence: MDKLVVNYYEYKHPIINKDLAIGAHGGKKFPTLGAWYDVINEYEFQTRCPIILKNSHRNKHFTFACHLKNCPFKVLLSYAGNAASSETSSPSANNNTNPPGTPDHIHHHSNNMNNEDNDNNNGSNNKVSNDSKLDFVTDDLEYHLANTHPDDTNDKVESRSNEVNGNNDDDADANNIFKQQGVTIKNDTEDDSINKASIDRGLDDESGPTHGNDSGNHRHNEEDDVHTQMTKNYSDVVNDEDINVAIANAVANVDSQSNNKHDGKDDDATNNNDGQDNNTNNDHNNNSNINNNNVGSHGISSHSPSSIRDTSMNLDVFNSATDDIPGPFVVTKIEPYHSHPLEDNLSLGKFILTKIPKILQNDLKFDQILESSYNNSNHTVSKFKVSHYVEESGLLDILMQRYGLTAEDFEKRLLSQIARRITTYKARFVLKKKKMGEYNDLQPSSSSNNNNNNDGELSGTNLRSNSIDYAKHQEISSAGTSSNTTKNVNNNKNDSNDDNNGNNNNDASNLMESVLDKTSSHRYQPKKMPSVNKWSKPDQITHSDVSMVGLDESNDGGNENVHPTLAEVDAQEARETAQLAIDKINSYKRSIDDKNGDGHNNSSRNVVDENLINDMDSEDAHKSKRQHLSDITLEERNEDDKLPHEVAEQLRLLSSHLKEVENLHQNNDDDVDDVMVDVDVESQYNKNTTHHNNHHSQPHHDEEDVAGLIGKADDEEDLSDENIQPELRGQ
The assay can be described thus: PBM E-score (8-mer binding enrichment) (E-score (-0.5 to 0.5)); higher = stronger / more preferred TF binding. The note with it: protein concentration: 200 nM; construct: GST-full length. The method, boiled down:
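Using PURExpress in vitro transcription/translation, GST-tagged yeast transcription factors were made in full-length or DNA-binding-domain form. These were applied at about 100-200 nM to double-stranded universal all-10-mer Agilent arrays, and bound protein was detected with fluorescent anti-GST. Scans were normalised with masliner before the Universal PBM Analysis Suite assigned E-scores to ungapped eight-base words pooled with their reverse complements.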
As to AACGGATC, the “PBM E-score” value was 0.107.

For the sequence CGATTAGC, the “PBM E-score” value was 0.0229.

For the sequence ACCCCTTA, the “PBM E-score” value was determined as 0.0662.

Consider GGAACGAA, for which the “PBM E-score” value was 0.0112.

For GTGTAAGA, the “PBM E-score” value amounted to 0.104.

Regarding CTAGAGAG, the “PBM E-score” value was -0.106.

As for CTACCGTC, the “PBM E-score” value is 0.036.

As to GAGGTGTA, the “PBM E-score” value was -0.107.

Consider CAAGGGTG, for which the “PBM E-score” value is -0.228.

As for CTTCAGGC, the “PBM E-score” value was -0.0909.

In the case of GCTTCGAA, the “PBM E-score” value was -0.00351.

With ATATGTGG, the “PBM E-score” value worked out at 0.157.

As to CTGCGCGA, the “PBM E-score” value was -0.147.

As to AGACAACT, the “PBM E-score” value is -0.0459.

In the case of AATTCGGC, the “PBM E-score” value is -0.26.

Take GCCTTTAA: the “PBM E-score” value was -0.0114.

As to GAGAGAGA, the “PBM E-score” value is -0.0759.

CGTCATAC: the “PBM E-score” value is 0.316.

With CGAACTAC, the “PBM E-score” value came to 0.0107.

On to ACTATAAC, for which the “PBM E-score” value turned out to be 0.0346.

On to CTGAGAGC, for which the “PBM E-score” value is -0.223.

Consider AGAGGTCC, for which the “PBM E-score” value was -0.00762.

Consider AGATGCGC, for which the “PBM E-score” value was -0.0322.

As to ACAGTAGC, the “PBM E-score” value is -0.129.

Take GATTGCAA: the “PBM E-score” value is 0.0434.

As to CGATTCGC, the “PBM E-score” value was -0.0463.

Regarding ACGTAGAC, the “PBM E-score” value is 0.0202.

As for GCCGACGA, the “PBM E-score” value came to 0.176.

Take CCGCATAA: the “PBM E-score” value came out at 0.026.

Consider CCAAGAAG, for which the “PBM E-score” value is -0.162.

As for CGGCACTA, the “PBM E-score” value was -0.158.

As for CTGACATA, the “PBM E-score” value is 0.0493.

Consider ACTATTCG, for which the “PBM E-score” value came to 0.0377.

CTTTCGTC: the “PBM E-score” value is 0.191.

As for AAATCTTA, the “PBM E-score” value came to 0.081.

Consider TACTAGGA, for which the “PBM E-score” value was -0.192.

For CCAATCGG, the “PBM E-score” value was -0.254.

As for ACCGAGCC, the “PBM E-score” value was 0.00156.

In the case of AGGACACT, the “PBM E-score” value was -0.176.

Take CGTAAAGC: the “PBM E-score” value was -0.162.

For the sequence TAATATCA, the “PBM E-score” value amounted to 0.344.

For the sequence GACGAGAA, the “PBM E-score” value worked out at 0.203.

For the sequence GGCGCACA, the “PBM E-score” value is -0.14.

For the sequence AGAAAAGC, the “PBM E-score” value is -0.0493.

With CCCGGTAG, the “PBM E-score” value is -0.0778.

In the case of TTGGGAAA, the “PBM E-score” value stood at 0.0816.

On to CTCATCCA, for which the “PBM E-score” value was -0.0507.

ATCTTACA: the “PBM E-score” value turned out to be 0.152.

On to AAAGGTCA, for which the “PBM E-score” value was -0.00768.

Regarding ATGTTGCA, the “PBM E-score” value was 0.0107.

Turning to GTGCCACA, the “PBM E-score” value came out at 0.00181.

Take TACAATAA: the “PBM E-score” value was 0.112.

Regarding TACCATAA, the “PBM E-score” value is -0.0141.

Turning to AGCGACGA, the “PBM E-score” value came out at 0.175.

For GGGACGAC, the “PBM E-score” value was 0.157.

Turning to CCTAACCA, the “PBM E-score” value is -0.152.

Turning to GCCCAATA, the “PBM E-score” value was -0.189.

Turning to ATTGTCAC, the “PBM E-score” value stood at 0.398.

On to AGAGACCG, for which the “PBM E-score” value is -0.0561.

CCCCGCTA: the “PBM E-score” value was -0.0213.

As to GGTCGTTA, the “PBM E-score” value came to 0.122.

Regarding TCACCAGA, the “PBM E-score” value came out at 0.0505.

For the sequence GGGTAGCA, the “PBM E-score” value is -0.122.

AAAGCGGA: the “PBM E-score” value was -0.136.

For the sequence CATCCGAA, the “PBM E-score” value was found to be 0.0517.

Consider CGGCCGTC, for which the “PBM E-score” value was 0.02.

As to AGGCGGCG, the “PBM E-score” value turned out to be 0.00332.

In the case of CACTGCCC, the “PBM E-score” value was -0.118.

For the sequence CATGGAGC, the “PBM E-score” value is -0.15.

Turning to GCCGTATA, the “PBM E-score” value was 0.379.

For the sequence CTTGGAGC, the “PBM E-score” value is -0.172.

Regarding GCACCTCC, the “PBM E-score” value is -0.186.

ACTATCCC: the “PBM E-score” value was determined as 0.0467.

As for CGGGTAAG, the “PBM E-score” value was -0.0765.

As to CGTTAAAA, the “PBM E-score” value was 0.219.

As to AAGAGCGC, the “PBM E-score” value was -0.0537.

Regarding GGAACACA, the “PBM E-score” value was -0.189.

Turning to ACCCCCGG, the “PBM E-score” value is -0.32.

ATCTCGTC: the “PBM E-score” value was found to be 0.175.

As for CCACTGCG, the “PBM E-score” value was -0.237.

AGCCCAAG: the “PBM E-score” value was -0.219.

On to AAAATAGT, for which the “PBM E-score” value was 0.138.

On to AAATCTGT, for which the “PBM E-score” value is -0.03.

Turning to CAGTGTTC, the “PBM E-score” value was -0.0641.

CCTGATAC: the “PBM E-score” value came out at 0.143.

ACAAGCGA: the “PBM E-score” value came out at 0.0929.
